Reference: patent US20160046678A1 (ZYNGENIA, published 2016)
Results are given in words; binding and its absence hold for the method and conditions named. Some binding calls cover weakened binding; strength is not graded here.

By UniProt entry, the sequences of proteins in these tests, tags left out. Residues count along the entry.
UniProt P21860, residues 20-643: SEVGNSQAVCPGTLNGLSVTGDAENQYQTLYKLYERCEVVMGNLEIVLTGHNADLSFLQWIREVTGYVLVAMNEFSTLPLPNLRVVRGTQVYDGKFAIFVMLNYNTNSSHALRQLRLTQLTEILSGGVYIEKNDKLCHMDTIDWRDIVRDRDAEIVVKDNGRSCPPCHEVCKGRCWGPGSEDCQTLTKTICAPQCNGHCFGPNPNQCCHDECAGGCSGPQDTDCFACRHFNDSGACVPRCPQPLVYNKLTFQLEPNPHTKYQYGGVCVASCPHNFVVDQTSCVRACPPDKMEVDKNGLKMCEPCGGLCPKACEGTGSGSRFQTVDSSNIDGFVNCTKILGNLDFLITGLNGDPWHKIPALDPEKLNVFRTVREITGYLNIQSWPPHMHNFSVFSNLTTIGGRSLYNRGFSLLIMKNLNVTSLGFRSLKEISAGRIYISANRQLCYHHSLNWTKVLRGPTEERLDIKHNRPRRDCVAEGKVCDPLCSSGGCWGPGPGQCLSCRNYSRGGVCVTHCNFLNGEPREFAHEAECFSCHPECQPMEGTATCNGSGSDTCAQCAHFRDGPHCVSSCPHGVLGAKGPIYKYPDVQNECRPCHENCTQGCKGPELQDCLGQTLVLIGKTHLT

B1: EGC936 (peptide)
peptide: STDPYCPFLNPVWNYQCIART
B2: EGC937 (peptide)
peptide: SHEPYCPFQNPIWKAECLART
B3: EGC938 (peptide)
peptide: LNDPYCPFLNPIWKEQCMSRY
B4: EGC939 (peptide)
peptide: GYAPYCPFLNPIWKNECITRT
B5: EGC940 (peptide)
peptide: FSEPYCPFVNPYWKEQCIART
B6: EGC941 (peptide)
peptide: HTEPYCPFLNPTWKEQCLARF
B7: EGC942 (peptide)
peptide: GYEPYCPFLNPIWKAECKARS
B8: EGC944 (peptide)
peptide: LREAYCPFINPIWKDQCMARI
B9: EGC945 (peptide)
peptide: LIEPYCPFLNPHWKAECIARY
B10: EGC946 (peptide)
peptide: SSEPYCPFINPMWKDQCLART
B11: EGC947 (peptide)
peptide: PSDPYCPFLNPSWKAECLART
B12: EGC948 (peptide)
peptide: SSEPYCPFLNPIWKAECIARA
B13: EGC949 (peptide)
peptide: FPEPYCPFLNPHWKAQCLERL
B14: EGC950 (peptide)
peptide: FREPYCPFLNPTWKQQCLARI
B15: EGC951 (peptide)
peptide: PREPYCPFLNPIWKDECIART
B16: EGC952 (peptide)
peptide: MSDPYCPFLNPTWKAQCIART
B17: EGC954 (peptide)
peptide: NSEPYCPFSNPTWKDECLIRS
B18: EGC955 (peptide)
peptide: LREPYCPFLNPTWKEQCIARY
B19: EGC956 (peptide)
peptide: HNKTYCPFLNPTWKAQCIART
B20: EGC957 (peptide)
peptide: IGEPYCPFLNPTWKEECIRRT
B21: EGC958 (peptide)
peptide: ISEPYCPFINPTWKAECIARS
B22: EGC959 (peptide)
peptide: TKAPYCPFKNPIWKAECIART
B23: EGC960 (peptide)
peptide: PGDPYCPFLNPIWKQECIVRN
B24: EGC961 (peptide)
peptide: STEPYCPFSNPTWKAQCIARI
B25: EGC962 (peptide)
peptide: RSEPYCPFLNPTWKDQCIARS
B26: EGC963 (peptide)
peptide: SSEPYCPFLNPIWKEHCIART
B27: EGC964 (peptide)
peptide: YREPYCPFLNPIWKEQCIART
B28: EGC965 (peptide)
peptide: HSEPYCPFVNPTWYNECISRT
B29: EGC966 (peptide)
peptide: RSEPYCPFLNPIWKDQCIARS
B30: EGC967 (peptide)
peptide: VNEPYCPFLNPKWYAECLART
B31: EGC968 (peptide)
peptide: QNDPYCPFLNPIWKAQCIARS
B32: EGC969 (peptide)
peptide: SSEPYCPFLNPYWKEQCIART
B33: EGC970 (peptide)
peptide: YREPYCPFLNPYWKDQCMART
B34: EGC972 (peptide)
peptide: MHEPYCPFINPTWYEQCLARS
B35: EGC973 (peptide)
peptide: QLKPYCPFLNPIWYDQCVSRT
B36: EGC974 (peptide)
peptide: SSEPYCPFLNPSWKDQCIARL
B37: EGC975 (peptide)
peptide: YIDPYCPFLNPTWKDACLARS
B38: EGC976 (peptide)
peptide: SSEHYCPFVNPAWKEACIARY
B39: EGC977 (peptide)
peptide: QSEPYCPFVNPTWKNECIARY
B40: EGC978 (peptide)
peptide: LSDPYCPFLNPIWKDQCIART
B41: EGC979 (peptide)
peptide: LGEPYCPFINPTWKAECLART
B42: EGC980 (peptide)
peptide: YGDPYCPFLNPTWKENCIART
B43: EGC981 (peptide)
peptide: LTEPYCPFLNPTWKDECLART
B44: EGC982 (peptide)
peptide: FREPYCPFKNPTWLAQCIARS
B45: EGC983 (peptide)
peptide: ANEPYCPFLNPHWKGQCVLRS
B46: EGC984 (peptide)
peptide: LNEPYCPFNNPTWKEECIKRS
B47: EGC985 (peptide)
peptide: QSEPYCPFLNPTWYTECVART
B48: EGC986 (peptide)
peptide: SSQPYCPFLNPTWKDACLART
B49: EGC988 (peptide)
peptide: SHEPYCPFLNPEWKAECIARN
B50: EGC989 (peptide)
peptide: ASDPYCPFLNPIWKDQCILRS
B51: EGC990 (peptide)
peptide: DNDPYCPFLNPTWKEECVARS
B52: EGC991 (peptide)
peptide: ESEPYCPFVNPIWKDQCMARY
B53: EGC992 (peptide)
peptide: LSAPYCPFLNPTWKDQCLART
B54: EGC993 (peptide)
peptide: SSEPYCPFLNPIWKQACYDRT
B55: EGC994 (peptide)
peptide: VDEPYCPFLNPNWKEACIARS
B56: EGC995 (peptide)
peptide: LIEPYCPFLNPTWKEQCFVRS
B57: EGC996 (peptide)
peptide: NDEPYCPFLNPIWKAQCLARN
B58: EGC997 (peptide)
peptide: AGKPYCPFLNPSWYDECIRRL
B59: EGC998 (peptide)
peptide: LSEPYCPFLNPIWKDQCMIRS
B60: EGC999 (peptide)
peptide: STEPYCPFLNPTWKDQCIARI
B61: EGC1000 (peptide)
peptide: PREPYCPFLNPVWKAQCIARW
B62: EGC1001 (peptide)
peptide: ISAPYCPFKNPIWKAECIARS
B63: EGC1003 (peptide)
peptide: IGEPYCPFLNPTWKDQCLVRS
B64: EGC1004 (peptide)
peptide: SSVPYCPFKNPTWKAECIART
B65: EGC1005 (peptide)
peptide: YREPYCPFLNPLWKDECIART
B66: EGC1006 (peptide)
peptide: HSEPYCPFLNPTWKDECITRT
B67: EGC1007 (peptide)
peptide: YSDPYCPFLNPSWYDECVSRM
B68: EGC1008 (peptide)
peptide: YREPYCPFLNPTWYVECIARS

Target: ErbB3 (UniProt P21860)
Assay: MRD screen, Example 48

Q: With B1 as the binder, how does the binding read?
A: binds

Q: Which binding does the source give for B2 here?
A: binds

Q: For B3, which binding is on record?
A: binds

Q: For B4, which binding is on record?
A: binds

Q: For B5, which binding is on record?
A: binds

Q: B6 was tested. Which binding did it give?
A: binds

Q: B7 was tested. Which binding did it give?
A: binds

Q: With B8 as the binder, how does the binding read?
A: binds

Q: B9 was tested. Which binding did it give?
A: binds

Q: Which binding does the source give for B10 here?
A: binds

Q: Which binding does the source give for B11 here?
A: binds

Q: Which binding does the source give for B12 here?
A: binds

Q: Which binding does the source give for B13 here?
A: binds

Q: How did the binding turn out when B14 was run?
A: binds

Q: With B15 as the binder, how does the binding read?
A: binds

Q: Which binding does the source give for B16 here?
A: binds

Q: Which binding does the source give for B17 here?
A: binds

Q: With B18 as the binder, how does the binding read?
A: binds

Q: For B19, which binding is on record?
A: binds

Q: Which binding does the source give for B20 here?
A: binds

Q: For B21, which binding is on record?
A: binds

Q: For B22, which binding is on record?
A: binds

Q: With B23 as the binder, how does the binding read?
A: binds

Q: B24 was tested. Which binding did it give?
A: binds

Q: B25 was tested. Which binding did it give?
A: binds

Q: B26 was tested. Which binding did it give?
A: binds

Q: How did the binding turn out when B27 was run?
A: binds

Q: With B28 as the binder, how does the binding read?
A: binds

Q: For B29, which binding is on record?
A: binds

Q: B30 was tested. Which binding did it give?
A: binds

Q: B31 was tested. Which binding did it give?
A: binds

Q: For B32, which binding is on record?
A: binds

Q: With B33 as the binder, how does the binding read?
A: binds

Q: For B34, which binding is on record?
A: binds

Q: For B35, which binding is on record?
A: binds

Q: With B36 as the binder, how does the binding read?
A: binds

Q: B37 was tested. Which binding did it give?
A: binds

Q: B38 was tested. Which binding did it give?
A: binds

Q: Which binding does the source give for B39 here?
A: binds

Q: Which binding does the source give for B40 here?
A: binds

Q: How did the binding turn out when B41 was run?
A: binds

Q: B42 was tested. Which binding did it give?
A: binds

Q: Which binding does the source give for B43 here?
A: binds

Q: B44 was tested. Which binding did it give?
A: binds

Q: Which binding does the source give for B45 here?
A: binds

Q: For B46, which binding is on record?
A: binds

Q: With B47 as the binder, how does the binding read?
A: binds

Q: With B48 as the binder, how does the binding read?
A: binds

Q: For B49, which binding is on record?
A: binds

Q: With B50 as the binder, how does the binding read?
A: binds

Q: Which binding does the source give for B51 here?
A: binds

Q: How did the binding turn out when B52 was run?
A: binds

Q: Which binding does the source give for B53 here?
A: binds

Q: B54 was tested. Which binding did it give?
A: binds

Q: For B55, which binding is on record?
A: binds

Q: For B56, which binding is on record?
A: binds

Q: For B57, which binding is on record?
A: binds

Q: How did the binding turn out when B58 was run?
A: binds

Q: For B59, which binding is on record?
A: binds

Q: B60 was tested. Which binding did it give?
A: binds

Q: For B61, which binding is on record?
A: binds

Q: Which binding does the source give for B62 here?
A: binds

Q: With B63 as the binder, how does the binding read?
A: binds

Q: B64 was tested. Which binding did it give?
A: binds

Q: How did the binding turn out when B65 was run?
A: binds

Q: For B66, which binding is on record?
A: binds

Q: With B67 as the binder, how does the binding read?
A: binds

Q: B68 was tested. Which binding did it give?
A: binds
